Here are results for one substance from paper PMC6982044.

By UniProt entry, the sequences of proteins in these tests, tags left out. Where a name states a change or a piece, a line headed by the entry shows the natural chain unless it says otherwise. Residues count along the entry.
UniProt P53563, residues 61-233: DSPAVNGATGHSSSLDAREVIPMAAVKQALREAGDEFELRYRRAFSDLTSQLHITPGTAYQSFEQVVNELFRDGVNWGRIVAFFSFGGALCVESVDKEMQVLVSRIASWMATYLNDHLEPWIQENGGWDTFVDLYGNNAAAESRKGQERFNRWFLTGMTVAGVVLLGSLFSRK
UniProt Q07812: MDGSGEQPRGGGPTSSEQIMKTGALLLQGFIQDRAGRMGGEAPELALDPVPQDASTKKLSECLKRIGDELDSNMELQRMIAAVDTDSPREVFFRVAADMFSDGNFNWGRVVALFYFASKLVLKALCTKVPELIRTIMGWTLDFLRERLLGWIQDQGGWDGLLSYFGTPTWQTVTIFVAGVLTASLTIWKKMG

Results are given in words; binding and its absence hold for the method and conditions named. Binding seen in cells or lysates may run through a third protein. Some results given as binding are weak or reduced against the parent protein; the word gives no strength.

The target of test [1] is HA-tagged ∆N-Bcl-xL (rat) (rat) (UniProt P53563). The test is described as follows: co-IP; HA-tagged ΔN-Bcl-xL immunoprecipitated (Pierce HA tag IP/Co-IP kit) from lysate of transfected HEK293T cells, without α-TCT; blot with anti-Bax (monomeric).
The target is the same in test [2]. The experiment in a line: co-IP; HA-tagged ΔN-Bcl-xL immunoprecipitated (Pierce HA tag IP/Co-IP kit) from lysate of transfected HEK293T cells, in the presence of α-TCT (concentration not stated); blot with anti-Bax (monomeric).

As to Bax (from UniProt Q07812 1-192), the figures for the binding result in test [1] and in test [2] were “binds” and “no binding (condition: with α-TCT)”, respectively.
